In PMC5769606:
Where two headings read alike, the source gives them in different places. No constants are given. Whether binding was seen depends on the method and setting. For part of these data: Binding seen in cells or lysates may run through a third protein. Some entries that bind do so weakly or less than the wild type. For part of these data: Tags and fused reporters may be left off the sequences shown. Values belong to the molecule of their own block, whether it stands above or below them.

The chains behind the UniProt entries cited, without tags or fusion partners.
UniProt Q02637: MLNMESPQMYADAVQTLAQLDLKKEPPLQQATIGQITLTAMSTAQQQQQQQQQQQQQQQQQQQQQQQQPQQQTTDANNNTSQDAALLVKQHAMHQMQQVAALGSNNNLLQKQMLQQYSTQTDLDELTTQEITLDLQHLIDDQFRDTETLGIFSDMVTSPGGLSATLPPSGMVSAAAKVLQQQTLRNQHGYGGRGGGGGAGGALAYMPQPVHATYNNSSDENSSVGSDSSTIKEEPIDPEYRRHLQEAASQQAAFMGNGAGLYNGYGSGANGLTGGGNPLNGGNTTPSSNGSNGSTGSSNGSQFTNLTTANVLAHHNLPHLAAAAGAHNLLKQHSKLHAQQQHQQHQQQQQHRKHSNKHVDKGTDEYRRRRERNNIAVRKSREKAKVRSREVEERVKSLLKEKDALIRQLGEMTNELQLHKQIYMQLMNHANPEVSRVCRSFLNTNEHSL

How the values were obtained:
[1] = target: T1, Trbl R141E two-hybrid bait (Drosophila) (UniProt Q9V3Z1); experiment: two-hybrid; ProQuest system, S. cerevisiae MaV203; Trbl in bait vector pDEST32, dAkt or Slbo in prey vector pDEST22; growth on SC-Leu-Trp-His with 3AT at various concentrations, 3-4 days at 30°C
T1 sequence: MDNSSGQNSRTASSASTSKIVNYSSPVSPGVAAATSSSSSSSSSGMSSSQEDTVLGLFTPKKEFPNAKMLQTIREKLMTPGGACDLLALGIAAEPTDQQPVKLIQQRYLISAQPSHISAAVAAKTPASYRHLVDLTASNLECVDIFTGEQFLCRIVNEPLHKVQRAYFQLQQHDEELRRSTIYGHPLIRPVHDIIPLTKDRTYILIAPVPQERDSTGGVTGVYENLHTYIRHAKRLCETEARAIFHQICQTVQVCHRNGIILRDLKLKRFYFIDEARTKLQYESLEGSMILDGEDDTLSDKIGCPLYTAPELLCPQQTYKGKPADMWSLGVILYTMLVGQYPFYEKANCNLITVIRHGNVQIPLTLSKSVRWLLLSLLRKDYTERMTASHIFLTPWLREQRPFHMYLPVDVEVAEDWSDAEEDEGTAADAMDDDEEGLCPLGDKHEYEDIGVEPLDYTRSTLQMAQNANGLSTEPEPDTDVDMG

[2] = target: T2, FLAGTrbl WT two-hybrid bait (pDEST32) (Drosophila) (UniProt Q9V3Z1); experiment: as above
T2 sequence: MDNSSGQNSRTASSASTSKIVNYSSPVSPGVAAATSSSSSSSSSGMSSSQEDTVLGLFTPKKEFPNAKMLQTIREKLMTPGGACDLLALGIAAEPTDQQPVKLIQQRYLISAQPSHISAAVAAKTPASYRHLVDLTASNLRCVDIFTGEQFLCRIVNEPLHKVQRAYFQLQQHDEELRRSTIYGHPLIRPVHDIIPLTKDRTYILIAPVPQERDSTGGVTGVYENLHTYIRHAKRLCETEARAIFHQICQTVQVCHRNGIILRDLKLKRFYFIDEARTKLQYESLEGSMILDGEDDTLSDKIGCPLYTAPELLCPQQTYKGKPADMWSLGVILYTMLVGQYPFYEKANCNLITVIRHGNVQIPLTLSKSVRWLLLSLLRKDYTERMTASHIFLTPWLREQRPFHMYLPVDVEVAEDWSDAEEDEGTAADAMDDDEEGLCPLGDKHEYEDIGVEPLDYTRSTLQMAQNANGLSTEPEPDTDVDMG

[3] = target: T3, FLAGTrbl^R141Q two-hybrid bait (pDEST32) (Drosophila) (UniProt Q9V3Z1); experiment: as above
T3 sequence: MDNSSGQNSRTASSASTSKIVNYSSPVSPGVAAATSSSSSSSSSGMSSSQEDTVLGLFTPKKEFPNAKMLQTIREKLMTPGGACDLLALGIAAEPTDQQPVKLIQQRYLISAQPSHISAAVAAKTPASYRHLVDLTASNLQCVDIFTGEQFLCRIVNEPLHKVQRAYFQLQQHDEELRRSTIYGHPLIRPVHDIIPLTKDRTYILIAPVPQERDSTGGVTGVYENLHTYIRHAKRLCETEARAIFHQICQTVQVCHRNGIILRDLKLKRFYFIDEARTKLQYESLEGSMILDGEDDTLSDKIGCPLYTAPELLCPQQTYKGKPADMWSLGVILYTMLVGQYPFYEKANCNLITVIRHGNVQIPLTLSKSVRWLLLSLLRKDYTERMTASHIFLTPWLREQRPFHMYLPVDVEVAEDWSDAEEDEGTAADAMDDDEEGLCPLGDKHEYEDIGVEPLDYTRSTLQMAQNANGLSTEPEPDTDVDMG

[4] = target: T1, Trbl R141E two-hybrid bait (Drosophila); experiment: as above; remark: listed apart in the source
[5] = target: T2, FLAGTrbl WT two-hybrid bait (pDEST32) (Drosophila); experiment: as above; remark: listed apart in the source
[6] = target: T3, FLAGTrbl^R141Q two-hybrid bait (pDEST32) (Drosophila); experiment: as above; remark: listed apart in the source
[7] = target: T4, FLAG-tagged Drosophila Tribbles R141Q (UAS-FLAG-trbl^R141Q transgene) (Drosophila) (UniProt Q9V3Z1); experiment: co-IP; embryonic extracts misexpressing dAkt and WT or mutant Trbl; immunoprecipitation with Trbl antisera, western blot with anti-Akt sera
T4 sequence: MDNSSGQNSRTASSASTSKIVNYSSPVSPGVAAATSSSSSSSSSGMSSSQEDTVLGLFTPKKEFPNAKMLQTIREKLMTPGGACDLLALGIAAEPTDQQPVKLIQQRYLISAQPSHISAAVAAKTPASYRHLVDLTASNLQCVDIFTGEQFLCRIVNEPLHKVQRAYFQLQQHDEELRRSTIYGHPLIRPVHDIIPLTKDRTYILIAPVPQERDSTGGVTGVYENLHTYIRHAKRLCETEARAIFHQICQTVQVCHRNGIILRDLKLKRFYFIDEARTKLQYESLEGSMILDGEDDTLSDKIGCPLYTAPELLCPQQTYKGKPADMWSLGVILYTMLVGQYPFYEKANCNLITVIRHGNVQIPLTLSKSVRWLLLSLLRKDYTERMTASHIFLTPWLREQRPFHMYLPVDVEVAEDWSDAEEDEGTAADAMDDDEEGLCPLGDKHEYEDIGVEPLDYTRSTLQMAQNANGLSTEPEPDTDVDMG

[8] = target: T5, FLAG-tagged Drosophila Tribbles, wild type (UAS-FLAG-trbl.WT transgene) (Drosophila) (UniProt Q9V3Z1); experiment: as above
T5 sequence: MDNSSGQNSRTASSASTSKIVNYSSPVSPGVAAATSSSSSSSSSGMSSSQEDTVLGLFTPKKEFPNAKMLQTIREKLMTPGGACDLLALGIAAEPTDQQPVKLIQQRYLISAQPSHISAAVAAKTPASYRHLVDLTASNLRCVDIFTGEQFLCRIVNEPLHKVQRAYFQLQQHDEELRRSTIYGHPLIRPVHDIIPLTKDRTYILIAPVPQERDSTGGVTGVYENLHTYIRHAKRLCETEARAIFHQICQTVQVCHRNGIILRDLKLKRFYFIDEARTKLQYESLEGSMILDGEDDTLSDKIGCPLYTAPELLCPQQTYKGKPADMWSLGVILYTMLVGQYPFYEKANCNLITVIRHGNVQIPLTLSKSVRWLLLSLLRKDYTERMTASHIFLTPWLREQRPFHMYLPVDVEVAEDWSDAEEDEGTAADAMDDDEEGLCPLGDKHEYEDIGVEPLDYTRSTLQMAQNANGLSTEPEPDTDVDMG

[9] = target: T6, FLAG-tagged Drosophila Tribbles R141E (UAS-FLAG-trbl^R141E transgene) (Drosophila) (UniProt Q9V3Z1); experiment: co-IP; larval fat body extracts misexpressing Trbl transgenes (r4-GAL4); anti-Trbl antibody on PrecipHen beads, glycine elution, blot for Akt
T6 sequence: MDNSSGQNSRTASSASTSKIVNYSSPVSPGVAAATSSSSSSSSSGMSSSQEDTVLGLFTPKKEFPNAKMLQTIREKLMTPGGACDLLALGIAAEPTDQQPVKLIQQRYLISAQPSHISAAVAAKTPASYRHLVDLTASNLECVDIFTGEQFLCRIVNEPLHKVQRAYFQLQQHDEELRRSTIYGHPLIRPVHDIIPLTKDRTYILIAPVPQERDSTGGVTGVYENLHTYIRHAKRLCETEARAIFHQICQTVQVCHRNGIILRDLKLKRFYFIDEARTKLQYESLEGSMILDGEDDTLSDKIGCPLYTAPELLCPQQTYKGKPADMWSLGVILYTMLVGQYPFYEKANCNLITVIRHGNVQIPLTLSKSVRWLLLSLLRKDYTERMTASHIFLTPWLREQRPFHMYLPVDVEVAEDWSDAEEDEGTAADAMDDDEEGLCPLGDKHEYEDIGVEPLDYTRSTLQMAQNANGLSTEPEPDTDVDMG

binding [1]: binds
binding [2]: binds
binding [3]: binds
Molecule: Slow border cells (Slbo) two-hybrid prey (pDEST22) (from UniProt Q02637 1-449)

binding [4]: binds
binding [5]: binds
binding [6]: binds
B1: dAkt two-hybrid prey (pDEST22) (enzyme, UniProt Q8INB9-2 1-530)
chain: MSINTTFDLSSPSVTSGHALTEQTQVVKEGWLMKRGEHIKNWRQRYFVLHSDGRLMGYRSKPADSASTPSDFLLNNFTVRGCQIMTVDRPKPFTFIIRGLQWTTVIERTFAVESELERQQWTEAIRNVSSRLIDVGEVAMTPSEQTDMTDVDMATIAEDELSEQFSVQGTTCNSSGVKKVTLENFEFLKVLGKGTFGKVILCREKATAKLYAIKILKKEVIIQKDEVAHTLTESRVLKSTNHPFLISLKYSFQTNDRLCFVMQYVNGGELFWHLSHERIFTEDRTRFYGAEIISALGYLHSQGIIYRDLKLENLLLDKDGHIKVADFGLCKEDITYGRTTKTFCGTPEYLAPEVLDDNDYGQAVDWWGTGVVMYEMICGRLPFYNRDHDVLFTLILVEEVKFPRNITDEAKNLLAGLLAKDPKKRLGGGKDDVKEIQAHPFFASINWTDLVLKKIPPPFKPQVTSDTDTRYFDKEFTGESVELTPPDPTGPLGSIAEEPLFPQFSYQGDMASTLGTSSHISTSTSLASMQ

binding [7]: binds
binding [8]: binds
B2: Drosophila Akt misexpressed in embryos (enzyme, UniProt Q8INB9 1-611)
chain: MNYLPFVLQRRSTVVASAPAPGSASRIPESPTTTGSNIINIIYSQSTHPNSSPTSGSAEKFSWQQSWPSRTSAAPTHDSGTMSINTTFDLSSPSVTSGHALTEQTQVVKEGWLMKRGEHIKNWRQRYFVLHSDGRLMGYRSKPADSASTPSDFLLNNFTVRGCQIMTVDRPKPFTFIIRGLQWTTVIERTFAVESELERQQWTEAIRNVSSRLIDVGEVAMTPSEQTDMTDVDMATIAEDELSEQFSVQGTTCNSSGVKKVTLENFEFLKVLGKGTFGKVILCREKATAKLYAIKILKKEVIIQKDEVAHTLTESRVLKSTNHPFLISLKYSFQTNDRLCFVMQYVNGGELFWHLSHERIFTEDRTRFYGAEIISALGYLHSQGIIYRDLKLENLLLDKDGHIKVADFGLCKEDITYGRTTKTFCGTPEYLAPEVLDDNDYGQAVDWWGTGVVMYEMICGRLPFYNRDHDVLFTLILVEEVKFPRNITDEAKNLLAGLLAKDPKKRLGGGKDDVKEIQAHPFFASINWTDLVLKKIPPPFKPQVTSDTDTRYFDKEFTGESVELTPPDPTGPLGSIAEEPLFPQFSYQGDMASTLGTSSHISTSTSLASMQ

binding [9]: binds
B3: Drosophila Akt in larval fat body extract (enzyme, UniProt Q8INB9 1-611)
chain: MNYLPFVLQRRSTVVASAPAPGSASRIPESPTTTGSNIINIIYSQSTHPNSSPTSGSAEKFSWQQSWPSRTSAAPTHDSGTMSINTTFDLSSPSVTSGHALTEQTQVVKEGWLMKRGEHIKNWRQRYFVLHSDGRLMGYRSKPADSASTPSDFLLNNFTVRGCQIMTVDRPKPFTFIIRGLQWTTVIERTFAVESELERQQWTEAIRNVSSRLIDVGEVAMTPSEQTDMTDVDMATIAEDELSEQFSVQGTTCNSSGVKKVTLENFEFLKVLGKGTFGKVILCREKATAKLYAIKILKKEVIIQKDEVAHTLTESRVLKSTNHPFLISLKYSFQTNDRLCFVMQYVNGGELFWHLSHERIFTEDRTRFYGAEIISALGYLHSQGIIYRDLKLENLLLDKDGHIKVADFGLCKEDITYGRTTKTFCGTPEYLAPEVLDDNDYGQAVDWWGTGVVMYEMICGRLPFYNRDHDVLFTLILVEEVKFPRNITDEAKNLLAGLLAKDPKKRLGGGKDDVKEIQAHPFFASINWTDLVLKKIPPPFKPQVTSDTDTRYFDKEFTGESVELTPPDPTGPLGSIAEEPLFPQFSYQGDMASTLGTSSHISTSTSLASMQ
